Data: the supplement of paper PMC10849652
Some of the results follow.

The chains behind the UniProt entries cited, without tags or fusion partners. Where a name states a change or a piece, a line headed by the entry shows the natural chain unless it says otherwise.
UniProt O95302: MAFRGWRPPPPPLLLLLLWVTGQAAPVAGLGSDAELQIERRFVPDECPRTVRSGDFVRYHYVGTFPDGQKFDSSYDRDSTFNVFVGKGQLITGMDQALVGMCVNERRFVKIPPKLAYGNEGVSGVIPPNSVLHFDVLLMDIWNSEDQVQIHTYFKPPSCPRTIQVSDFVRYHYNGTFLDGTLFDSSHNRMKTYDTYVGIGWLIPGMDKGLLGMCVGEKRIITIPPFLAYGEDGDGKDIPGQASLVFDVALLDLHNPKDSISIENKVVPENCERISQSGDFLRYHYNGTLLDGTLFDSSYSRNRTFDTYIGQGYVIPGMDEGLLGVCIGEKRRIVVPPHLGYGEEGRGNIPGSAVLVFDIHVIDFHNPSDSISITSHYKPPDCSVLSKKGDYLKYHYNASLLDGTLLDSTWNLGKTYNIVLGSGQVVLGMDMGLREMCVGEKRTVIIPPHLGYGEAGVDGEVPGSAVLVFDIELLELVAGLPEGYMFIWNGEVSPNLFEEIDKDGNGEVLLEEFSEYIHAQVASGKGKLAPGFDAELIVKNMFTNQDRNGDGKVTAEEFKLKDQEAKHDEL
UniProt Q9UIM3: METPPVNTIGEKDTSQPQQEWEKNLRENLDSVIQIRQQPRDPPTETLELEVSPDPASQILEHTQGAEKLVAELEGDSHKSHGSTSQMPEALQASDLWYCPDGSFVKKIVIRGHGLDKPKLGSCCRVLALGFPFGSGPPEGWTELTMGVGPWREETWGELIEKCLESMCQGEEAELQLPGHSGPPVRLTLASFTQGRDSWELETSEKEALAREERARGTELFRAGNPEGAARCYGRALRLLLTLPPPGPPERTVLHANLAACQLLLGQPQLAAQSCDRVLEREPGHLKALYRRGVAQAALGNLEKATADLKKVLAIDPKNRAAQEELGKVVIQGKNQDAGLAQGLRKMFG
UniProt P49327, whole entry, looked up: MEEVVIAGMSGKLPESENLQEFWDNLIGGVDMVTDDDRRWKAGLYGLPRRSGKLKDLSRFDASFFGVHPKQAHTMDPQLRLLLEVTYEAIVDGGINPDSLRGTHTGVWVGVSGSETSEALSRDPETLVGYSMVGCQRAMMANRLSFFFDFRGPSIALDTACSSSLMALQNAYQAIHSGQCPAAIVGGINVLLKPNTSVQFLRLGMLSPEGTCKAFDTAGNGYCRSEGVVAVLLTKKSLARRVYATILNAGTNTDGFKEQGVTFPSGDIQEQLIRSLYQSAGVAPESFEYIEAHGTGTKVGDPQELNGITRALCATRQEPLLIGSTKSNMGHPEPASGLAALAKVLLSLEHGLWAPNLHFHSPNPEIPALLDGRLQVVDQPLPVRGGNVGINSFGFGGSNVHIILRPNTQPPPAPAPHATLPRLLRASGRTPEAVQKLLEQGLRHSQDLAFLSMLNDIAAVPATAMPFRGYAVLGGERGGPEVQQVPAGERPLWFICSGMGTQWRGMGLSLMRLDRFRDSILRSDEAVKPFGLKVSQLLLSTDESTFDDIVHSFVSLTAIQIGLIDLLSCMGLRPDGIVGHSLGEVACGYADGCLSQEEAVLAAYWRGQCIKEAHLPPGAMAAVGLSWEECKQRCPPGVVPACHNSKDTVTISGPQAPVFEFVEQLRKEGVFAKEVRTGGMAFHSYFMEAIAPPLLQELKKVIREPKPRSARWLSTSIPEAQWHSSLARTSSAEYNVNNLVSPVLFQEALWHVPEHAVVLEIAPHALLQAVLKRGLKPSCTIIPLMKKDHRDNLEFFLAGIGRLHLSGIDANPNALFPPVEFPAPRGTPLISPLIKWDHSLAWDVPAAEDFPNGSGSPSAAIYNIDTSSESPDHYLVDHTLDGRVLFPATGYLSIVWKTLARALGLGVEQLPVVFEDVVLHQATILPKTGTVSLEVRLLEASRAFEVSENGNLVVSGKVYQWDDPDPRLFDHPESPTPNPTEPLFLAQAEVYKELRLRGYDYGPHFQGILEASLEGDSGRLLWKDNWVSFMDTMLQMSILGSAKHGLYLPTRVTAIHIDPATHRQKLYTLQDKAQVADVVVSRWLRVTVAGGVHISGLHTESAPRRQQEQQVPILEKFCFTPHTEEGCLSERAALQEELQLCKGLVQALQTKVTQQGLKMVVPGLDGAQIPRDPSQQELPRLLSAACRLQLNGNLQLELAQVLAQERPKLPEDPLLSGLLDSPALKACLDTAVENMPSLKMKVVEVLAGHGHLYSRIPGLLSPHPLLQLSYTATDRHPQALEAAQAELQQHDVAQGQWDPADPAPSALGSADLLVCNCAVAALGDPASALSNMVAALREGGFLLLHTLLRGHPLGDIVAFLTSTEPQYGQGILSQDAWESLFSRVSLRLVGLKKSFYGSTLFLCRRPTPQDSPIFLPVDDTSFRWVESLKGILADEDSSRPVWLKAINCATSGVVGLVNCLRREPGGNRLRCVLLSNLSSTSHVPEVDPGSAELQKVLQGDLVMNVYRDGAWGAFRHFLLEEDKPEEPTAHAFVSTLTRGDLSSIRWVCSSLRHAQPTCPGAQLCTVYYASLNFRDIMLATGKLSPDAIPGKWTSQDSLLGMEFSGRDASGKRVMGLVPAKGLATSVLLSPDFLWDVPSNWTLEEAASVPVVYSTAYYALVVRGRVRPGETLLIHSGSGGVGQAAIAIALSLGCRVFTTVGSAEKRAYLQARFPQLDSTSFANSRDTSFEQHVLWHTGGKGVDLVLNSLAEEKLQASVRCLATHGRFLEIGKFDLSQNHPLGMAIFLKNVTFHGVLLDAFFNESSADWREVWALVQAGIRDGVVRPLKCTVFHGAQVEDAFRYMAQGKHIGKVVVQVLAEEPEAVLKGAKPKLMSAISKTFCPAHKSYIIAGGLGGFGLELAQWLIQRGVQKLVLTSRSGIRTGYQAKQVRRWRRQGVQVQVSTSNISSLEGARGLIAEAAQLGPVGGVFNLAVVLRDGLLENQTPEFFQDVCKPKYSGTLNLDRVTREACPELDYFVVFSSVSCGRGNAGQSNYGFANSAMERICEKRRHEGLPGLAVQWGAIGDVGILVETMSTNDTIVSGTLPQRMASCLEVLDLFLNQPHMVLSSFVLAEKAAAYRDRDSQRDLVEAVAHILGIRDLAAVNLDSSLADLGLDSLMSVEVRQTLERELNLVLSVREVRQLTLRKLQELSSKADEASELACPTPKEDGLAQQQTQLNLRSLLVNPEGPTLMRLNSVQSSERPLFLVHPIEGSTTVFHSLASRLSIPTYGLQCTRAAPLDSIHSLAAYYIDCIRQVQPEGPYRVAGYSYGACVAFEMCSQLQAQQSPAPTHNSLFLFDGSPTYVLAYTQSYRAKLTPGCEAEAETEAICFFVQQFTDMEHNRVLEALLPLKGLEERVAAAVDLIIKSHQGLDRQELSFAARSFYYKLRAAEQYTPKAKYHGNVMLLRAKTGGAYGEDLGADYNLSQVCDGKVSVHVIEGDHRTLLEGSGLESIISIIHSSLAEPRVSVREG
UniProt Q6PIW4: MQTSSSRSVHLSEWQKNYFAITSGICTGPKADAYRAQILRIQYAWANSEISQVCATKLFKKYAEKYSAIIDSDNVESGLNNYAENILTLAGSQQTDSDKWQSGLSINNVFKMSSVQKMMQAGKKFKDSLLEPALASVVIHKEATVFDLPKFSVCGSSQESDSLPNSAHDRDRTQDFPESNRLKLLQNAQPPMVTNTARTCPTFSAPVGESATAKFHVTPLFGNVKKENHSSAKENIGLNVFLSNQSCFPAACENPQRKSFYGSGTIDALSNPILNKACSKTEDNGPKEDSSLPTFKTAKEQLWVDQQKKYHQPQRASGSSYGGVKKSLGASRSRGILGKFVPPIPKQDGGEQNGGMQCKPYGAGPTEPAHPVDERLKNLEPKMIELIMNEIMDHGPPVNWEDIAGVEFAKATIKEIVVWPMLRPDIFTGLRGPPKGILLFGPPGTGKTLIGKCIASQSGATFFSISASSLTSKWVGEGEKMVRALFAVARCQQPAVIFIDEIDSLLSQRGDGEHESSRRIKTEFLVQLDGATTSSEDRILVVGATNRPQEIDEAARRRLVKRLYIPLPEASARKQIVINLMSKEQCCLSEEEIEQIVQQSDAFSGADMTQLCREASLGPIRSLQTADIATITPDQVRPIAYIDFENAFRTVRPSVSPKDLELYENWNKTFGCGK
UniProt O95684: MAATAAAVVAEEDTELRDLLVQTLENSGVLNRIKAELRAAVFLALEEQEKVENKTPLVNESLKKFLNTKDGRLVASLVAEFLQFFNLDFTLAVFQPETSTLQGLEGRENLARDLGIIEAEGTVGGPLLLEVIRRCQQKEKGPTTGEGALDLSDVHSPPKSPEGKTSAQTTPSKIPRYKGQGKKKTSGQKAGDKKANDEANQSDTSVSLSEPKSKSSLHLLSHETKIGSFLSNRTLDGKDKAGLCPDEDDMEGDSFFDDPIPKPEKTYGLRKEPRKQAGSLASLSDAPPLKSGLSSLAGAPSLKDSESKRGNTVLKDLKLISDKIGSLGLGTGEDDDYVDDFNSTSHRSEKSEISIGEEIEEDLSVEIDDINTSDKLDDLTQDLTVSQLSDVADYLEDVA
UniProt Q14254: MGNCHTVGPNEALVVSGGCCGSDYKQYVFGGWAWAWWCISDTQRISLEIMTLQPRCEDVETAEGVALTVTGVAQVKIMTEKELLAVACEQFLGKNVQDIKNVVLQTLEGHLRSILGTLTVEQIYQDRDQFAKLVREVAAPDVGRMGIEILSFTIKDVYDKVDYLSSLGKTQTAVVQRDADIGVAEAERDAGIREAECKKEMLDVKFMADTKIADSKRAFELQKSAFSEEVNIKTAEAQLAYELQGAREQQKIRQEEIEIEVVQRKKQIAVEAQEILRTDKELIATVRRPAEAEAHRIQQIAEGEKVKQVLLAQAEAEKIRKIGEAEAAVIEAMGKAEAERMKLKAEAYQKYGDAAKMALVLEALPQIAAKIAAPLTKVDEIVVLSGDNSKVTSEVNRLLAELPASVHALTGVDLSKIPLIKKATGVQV
UniProt Q96CP2: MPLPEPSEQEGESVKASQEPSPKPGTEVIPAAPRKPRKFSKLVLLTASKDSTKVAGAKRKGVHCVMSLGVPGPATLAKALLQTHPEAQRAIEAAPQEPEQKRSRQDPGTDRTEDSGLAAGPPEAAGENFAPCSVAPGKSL
UniProt Q8NFF5: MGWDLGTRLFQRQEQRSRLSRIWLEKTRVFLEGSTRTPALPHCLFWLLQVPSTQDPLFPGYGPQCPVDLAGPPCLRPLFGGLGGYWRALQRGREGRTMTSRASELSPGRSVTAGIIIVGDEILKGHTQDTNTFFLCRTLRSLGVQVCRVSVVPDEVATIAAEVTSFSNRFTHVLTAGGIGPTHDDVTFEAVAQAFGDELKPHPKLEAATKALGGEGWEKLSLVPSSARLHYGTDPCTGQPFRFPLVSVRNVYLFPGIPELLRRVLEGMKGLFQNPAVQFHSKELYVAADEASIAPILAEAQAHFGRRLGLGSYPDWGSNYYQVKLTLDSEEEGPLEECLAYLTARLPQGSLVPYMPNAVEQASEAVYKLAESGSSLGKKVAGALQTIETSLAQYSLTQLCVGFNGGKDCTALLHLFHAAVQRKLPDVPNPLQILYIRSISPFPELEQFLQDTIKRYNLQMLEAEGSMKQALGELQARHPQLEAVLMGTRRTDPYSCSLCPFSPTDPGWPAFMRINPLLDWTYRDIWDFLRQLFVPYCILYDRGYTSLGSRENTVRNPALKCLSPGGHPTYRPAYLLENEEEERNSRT
UniProt Q86UX7, whole entry, looked up: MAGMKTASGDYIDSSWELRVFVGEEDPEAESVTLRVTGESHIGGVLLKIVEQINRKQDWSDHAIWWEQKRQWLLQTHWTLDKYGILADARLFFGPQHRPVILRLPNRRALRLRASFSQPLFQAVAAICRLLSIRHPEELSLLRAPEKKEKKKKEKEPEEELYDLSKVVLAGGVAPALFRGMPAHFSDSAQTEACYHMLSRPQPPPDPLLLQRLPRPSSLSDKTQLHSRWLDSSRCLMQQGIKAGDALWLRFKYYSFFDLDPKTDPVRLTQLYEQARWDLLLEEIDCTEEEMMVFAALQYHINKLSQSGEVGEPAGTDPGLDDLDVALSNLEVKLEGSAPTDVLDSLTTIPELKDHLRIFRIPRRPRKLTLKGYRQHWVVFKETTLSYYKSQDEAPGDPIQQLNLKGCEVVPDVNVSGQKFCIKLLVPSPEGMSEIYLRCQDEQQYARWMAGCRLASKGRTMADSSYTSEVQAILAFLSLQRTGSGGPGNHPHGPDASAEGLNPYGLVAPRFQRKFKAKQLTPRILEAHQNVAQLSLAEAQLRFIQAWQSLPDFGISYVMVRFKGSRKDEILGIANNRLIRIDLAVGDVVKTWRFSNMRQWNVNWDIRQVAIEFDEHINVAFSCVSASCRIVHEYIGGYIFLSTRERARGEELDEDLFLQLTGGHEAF

What was measured:
Assay in all cases: log2 fold change, soluble protein after heating vs DMSO (PISA); higher = thermal stabilisation; K562 lysate, 10 uM; active = over 0.2 and 3.5 SD of the protein, either way, in both replicates (recomputed)
vemurafenib = compound: CCCS(=O)(=O)Nc1ccc(F)c(C(=O)c2c[nH]c3ncc(-c4ccc(Cl)cc4)cc23)c1F [vemurafenib]
How it was run: (§1)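 To prepare the extract, K562 pellets were dounce-homogenised in PBS pH 7.4 with 1 mM MgCl2, giving crude material at 1 mg/mL protein. This was treated with 10 μM compound for 30 min, then heated in aliquots for 3 min over 48°C-58°C before pooling and addition of NP-40 to 0.5% at 4°C. Centrifugation at 21,000xg for 90 min left soluble protein in the supernatant, which TMTpro 16plex LC-MS/MS quantified with equalised channel sums. Results are log-two fold changes in thermal stability compared with solvent controls, from duplicates.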

[1] = compound: CCCS(=O)(=O)Nc1ccc(F)c(C(=O)c2c[nH]c3ncc(Cl)cc23)c1F
How it was run: as §1

barasertib = compound: CCN(CCCOc1ccc2c(Nc3cc(CC(=O)Nc4cccc(F)c4)[nH]n3)ncnc2c1)CCOP(=O)(O)O [barasertib]
How it was run: as §1

[2] = compound: CC[C@@H]1C(=O)N(C)c2cnc(Nc3ccc(C(=O)NC4CCN(C)CC4)cc3OC)nc2N1C1CCCC1
How it was run: as §1

volasertib = compound: CC[C@@H]1C(=O)N(C)c2cnc(Nc3ccc(C(=O)N[C@H]4CC[C@H](N5CCN(CC6CC6)CC5)CC4)cc3OC)nc2N1C(C)C [volasertib]
How it was run: as §1

[3] = compound: CCn1c(C(=O)N(C2CC2)C2CC2)cc2c3c(ncn3C)c(Nc3cc(C)n(C)n3)nc21
How it was run: as §1

[4] = compound: CCn1cc(-c2ccnc3[nH]c(-c4cccc(CN(C)C)c4)cc23)c(-c2ccc(NC(=O)N(C)C)cc2)n1
How it was run: as §1

[5] = compound: CN1CCC(CNc2ccc3ncc(-c4cccc(OC(F)(F)F)c4)n3n2)CC1
How it was run: as §1

saracatinib = compound: CN1CCN(CCOc2cc(OC3CCOCC3)c3c(Nc4c(Cl)ccc5c4OCO5)ncnc3c2)CC1 [saracatinib]
How it was run: as §1

sotrastaurin = compound: CN1CCN(c2nc(C3=C(c4c[nH]c5ccccc45)C(=O)NC3=O)c3ccccc3n2)CC1 [sotrastaurin]
How it was run: as §1

alvocidib = compound: CN1CC[C@H](c2c(O)cc(O)c3c(=O)cc(-c4ccccc4Cl)oc23)[C@H](O)C1 [alvocidib]
How it was run: as §1

Tubastatin A = compound: CN1CCc2c(c3ccccc3n2Cc2ccc(C(=O)NO)cc2)C1 [Tubastatin A]
How it was run: as §1

[6] = compound: CNC(=O)C1=CC=CC=C1NC2=NC(=NC=C2Cl)NC3=C(C=C(C=C3)N4CCOCC4)OC
How it was run: as §1

defactinib = compound: CNC(=O)c1ccc(Nc2ncc(C(F)(F)F)c(NCc3nccnc3N(C)S(C)(=O)=O)n2)cc1 [defactinib]
How it was run: as §1

[7] = compound: CNc1nc(-c2ccc3c(N)n[nH]c3c2)cc(N2C[C@@H](C(=O)NC3CCCCC3)CC[C@H]2C)n1
How it was run: as §1

encorafenib = compound: COC(=O)N[C@@H](C)CNc1nccc(-c2cn(C(C)C)nc2-c2cc(Cl)cc(NS(C)(=O)=O)c2F)n1 [encorafenib]
How it was run: as §1

[8] = compound: COC(=O)[C@H](CCSC)NC(=O)C1=C(C=C(C=C1)NC[C@H](CS)N)C2=CC=CC=C2
How it was run: as §1

alisertib = compound: COc1cc(Nc2ncc3c(n2)-c2ccc(Cl)cc2C(c2c(F)cccc2OC)=NC3)ccc1C(=O)O [alisertib]
How it was run: as §1

[9] = compound: COc1cc2nc(-c3cc(F)ccc3O)nc(N[C@@H]3CNC[C@H]3C(C)(C)O)c2cc1OC
How it was run: as §1

gefitinib = compound: COc1cc2ncnc(Nc3ccc(F)c(Cl)c3)c2cc1OCCCN1CCOCC1 [gefitinib]
How it was run: as §1

Measured: log2 fold change

FKBP4 (UniProt Q02790)
inactive: vemurafenib -0.014 | [1] -0.004 | barasertib -0.037 | [2] -0.015 | volasertib -0.005 | [3] -0.004 | [4] -0.012 | [5] 0.014 | saracatinib -0.002 | sotrastaurin 0.014 | alvocidib 0.017 | Tubastatin A 0.01 | [6] -0.033 | defactinib -0.013 | [7] -0.011 | encorafenib -0.021 | [8] 0.011 | alisertib -0.005 | [9] 0.002 | gefitinib -0.007

FASTKD5 (UniProt Q7L8L6)
inactive: vemurafenib -0.003 | [1] 0.008 | barasertib -0.047 | [2] 0.073 | volasertib -0.065 | [3] 0.028 | [4] 0.082 | [5] -0.245 | saracatinib 0.043 | sotrastaurin -0.026 | alvocidib 0.024 | Tubastatin A -0.11 | [6] 0.03 | defactinib 0.011 | [7] -0.017 | encorafenib 0.064 | [8] 0.135 | alisertib 0.002 | [9] 0.072 | gefitinib -0.018

FKBP9 (UniProt O95302)
inactive: vemurafenib 0.003 | [1] 0.043 | barasertib 0.008 | [2] 0.053 | volasertib 0.005 | [3] -0.049 | [4] 0.025 | [5] 0.014 | saracatinib 0.024 | sotrastaurin -0.011 | alvocidib -0.007 | Tubastatin A 0.024 | [6] 0.06 | defactinib -0.054 | [7] 0.013 | encorafenib -0.019 | [8] -0.024 | alisertib -0.005 | [9] 0.015 | gefitinib 0.021

FKBPL (UniProt Q9UIM3)
inactive: vemurafenib 0.01 | [1] 0.035 | barasertib 0.01 | [2] 0.017 | volasertib -0.04 | [3] 0.031 | [4] 0.044 | [5] -0.016 | saracatinib 0.012 | sotrastaurin 0.049 | alvocidib -0.013 | Tubastatin A -0.022 | [6] 0.011 | defactinib 0 | [7] -0.011 | encorafenib -0.004 | [8] 0.016 | alisertib 0.026 | [9] -0.021 | gefitinib -0.024

Looked up one by one from the entries so far (two):
FKBPL (UniProt Q9UIM3)
inactive: vemurafenib 0.01 | [1] 0.035 | barasertib 0.01 | [2] 0.017 | volasertib -0.04 | [3] 0.031 | [4] 0.044 | [5] -0.016 | saracatinib 0.012 | sotrastaurin 0.049 | alvocidib -0.013 | Tubastatin A -0.022 | [6] 0.011 | defactinib 0 | [7] -0.011 | encorafenib -0.004 | [8] 0.016 | alisertib 0.026 | [9] -0.021 | gefitinib -0.024

FKBP4 (UniProt Q02790)
inactive: vemurafenib -0.014 | [1] -0.004 | barasertib -0.037 | [2] -0.015 | volasertib -0.005 | [3] -0.004 | [4] -0.012 | [5] 0.014 | saracatinib -0.002 | sotrastaurin 0.014 | alvocidib 0.017 | Tubastatin A 0.01 | [6] -0.033 | defactinib -0.013 | [7] -0.011 | encorafenib -0.021 | [8] 0.011 | alisertib -0.005 | [9] 0.002 | gefitinib -0.007

Next part.

FASN (UniProt P49327)
inactive: vemurafenib -0.022 | [1] 0.029 | barasertib 0.02 | [2] -0.037 | volasertib -0.016 | [3] 0.005 | [4] -0.036 | [5] 0.009 | saracatinib -0.002 | sotrastaurin -0.014 | alvocidib 0.011 | Tubastatin A -0.026 | [6] 0.015 | defactinib 0.009 | [7] 0.013 | encorafenib -0.001 | [8] 0.022 | alisertib 0.004 | [9] 0.001 | gefitinib -0.019

FANCB (UniProt Q8NB91)
inactive: vemurafenib -0.048 | [1] 0.03 | barasertib 0.019 | [2] -0.052 | volasertib 0.005 | [3] -0.005 | [4] -0.05 | [5] 0.046 | saracatinib 0.103 | sotrastaurin 0.04 | alvocidib -0.013 | Tubastatin A -0.086 | [6] 0.017 | defactinib 0.055 | [7] -0.017 | encorafenib 0.029 | [8] -0.142 | alisertib -0.004 | [9] 0.094 | gefitinib 0.1

FBXO2 (UniProt Q9UK22)
inactive: vemurafenib 0.222 | [1] 0.04 | barasertib 0.115 | [2] 0.026 | volasertib -0.054 | [3] 0.003 | [4] 0.131 | [5] -0.027 | saracatinib -0.149 | sotrastaurin 0.008 | alvocidib -0.002 | Tubastatin A -0.089 | [6] 0.141 | defactinib -0.122 | [7] -0.101 | encorafenib -0.046 | [8] 0.071 | alisertib 0.153 | [9] 0.074 | gefitinib 0.118

FIGNL1 (UniProt Q6PIW4)
inactive: vemurafenib -0.012 | [1] 0.042 | barasertib 0.03 | [2] -0.063 | volasertib -0.047 | [3] 0.027 | [4] -0.108 | [5] 0.036 | saracatinib 0.006 | sotrastaurin -0.015 | alvocidib -0.018 | Tubastatin A -0.189 | [6] 0.014 | defactinib 0.05 | [7] -0.018 | encorafenib 0.041 | [8] 0.069 | alisertib -0.003 | [9] 0.005 | gefitinib 0.01

FLII (UniProt Q13045)
inactive: vemurafenib -0.02 | [1] 0.026 | barasertib -0.01 | [2] -0.063 | volasertib -0.023 | [3] 0.006 | [4] 0.043 | [5] -0.062 | saracatinib 0.007 | sotrastaurin 0.038 | alvocidib 0.014 | Tubastatin A -0.034 | [6] -0.009 | defactinib -0.001 | [7] -0.022 | encorafenib -0.026 | [8] 0.146 | alisertib -0.008 | [9] -0.018 | gefitinib -0.027

FGFR1OP (UniProt O95684)
inactive: vemurafenib 0.016 | [1] 0.002 | barasertib -0.052 | [2] 0.09 | volasertib 0.023 | [3] -0.007 | [4] -0.034 | [5] 0.032 | saracatinib 0.025 | sotrastaurin 0.007 | alvocidib 0.008 | Tubastatin A 0.018 | [6] -0.003 | defactinib -0.011 | [7] 0.026 | encorafenib 0.053 | [8] -0.048 | alisertib -0.012 | [9] 0.016 | gefitinib -0.036

FMR1 (UniProt Q06787)
inactive: vemurafenib 0 | [1] -0.005 | barasertib -0.073 | [2] -0.083 | volasertib -0.065 | [3] 0 | [4] 0.051 | [5] 0.087 | saracatinib -0.024 | sotrastaurin -0.02 | alvocidib 0 | Tubastatin A -0.01 | [6] 0.005 | defactinib 0.046 | [7] 0.002 | encorafenib -0.017 | [8] 0.051 | alisertib -0.056 | [9] 0.02 | gefitinib -0.026

FLOT2 (UniProt Q14254)
inactive: vemurafenib 0.006 | [1] -0.018 | barasertib 0.032 | [2] -0.001 | volasertib -0.005 | [3] 0.01 | [4] -0.026 | [5] 0.018 | saracatinib 0.001 | sotrastaurin -0.009 | alvocidib -0.004 | Tubastatin A 0.106 | [6] -0.007 | defactinib -0.013 | [7] -0.022 | encorafenib -0.01 | [8] -0.032 | alisertib -0.016 | [9] 0.024 | gefitinib 0.031

FLYWCH2 (UniProt Q96CP2)
inactive: vemurafenib -0.01 | [1] -0.01 | barasertib -0.014 | [2] 0.1 | volasertib 0.017 | [3] 0.008 | [4] -0.039 | [5] 0.036 | saracatinib 0.01 | sotrastaurin -0.01 | alvocidib -0.021 | Tubastatin A 0.012 | [6] 0.005 | defactinib 0.016 | [7] 0.042 | encorafenib 0.007 | [8] -0.088 | alisertib 0.004 | [9] -0.031 | gefitinib 0.02

FN3K (UniProt Q9H479)
inactive: vemurafenib 0.06 | [1] -0.015 | barasertib -0.019 | [2] 0.022 | volasertib 0.011 | [3] 0.006 | [4] 0.089 | [5] -0.062 | saracatinib -0.004 | sotrastaurin 0.043 | alvocidib 0.036 | Tubastatin A 0.015 | [6] -0.005 | defactinib -0.009 | [7] 0.022 | encorafenib -0.006 | [8] -0.035 | alisertib -0.02 | [9] 0.002 | gefitinib 0.007

FLAD1 (UniProt Q8NFF5)
inactive: vemurafenib -0.051 | [1] 0.022 | barasertib -0.063 | [2] 0.055 | volasertib -0.028 | [3] 0.01 | [4] -0.002 | [5] -0.035 | saracatinib -0.001 | sotrastaurin 0.075 | alvocidib 0.035 | Tubastatin A -0.214 | [6] 0.039 | defactinib -0.008 | [7] -0.013 | encorafenib 0.031 | [8] 0.137 | alisertib -0.025 | [9] -0.013 | gefitinib -0.042

FERMT3 (UniProt Q86UX7)
inactive: vemurafenib 0.002 | [1] -0.012 | barasertib -0.008 | [2] -0.003 | volasertib 0.003 | [3] -0.019 | [4] -0.071 | [5] 0.02 | saracatinib -0.014 | sotrastaurin 0.014 | alvocidib -0.028 | Tubastatin A 0.009 | [6] 0.014 | defactinib -0.02 | [7] 0.02 | encorafenib -0.007 | [8] -0.023 | alisertib 0.022 | [9] 0.009 | gefitinib 0.019
